Experimental data as given in publication PMC7819943, “Rice protein-binding microarrays: a tool to detect cis-acting elements near promoter regions in rice”.
The other results are listed elsewhere or left out.

Chains of the proteins cited; added tags and fusions are not shown.
UniProt Q0JBA9, entry or part of it: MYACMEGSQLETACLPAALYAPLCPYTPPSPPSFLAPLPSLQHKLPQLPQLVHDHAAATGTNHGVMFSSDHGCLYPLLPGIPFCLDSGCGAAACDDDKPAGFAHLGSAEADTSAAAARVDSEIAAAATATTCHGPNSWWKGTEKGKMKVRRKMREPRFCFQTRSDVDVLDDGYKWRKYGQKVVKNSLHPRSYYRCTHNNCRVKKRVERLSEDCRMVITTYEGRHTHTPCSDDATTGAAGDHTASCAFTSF

The sequences below were run against OsWRKY34 (Oryza sativa, UniProt Q0JBA9 1-250) (assay: protein-binding microarray (RPBM); PBS, 2% BSA, 51.3 ng/ul salmon testes DNA, 50 uM zinc acetate, 200 nM TF, 25 C, 1 h; high values mean tight binding). Conditions: protein: recombinant; tags: N-terminal polyhistidine and DsRed monomer fusion (pET32a); label: CyDye5-dUTP incorporated in the synthesized complementary strand; 3' TTTTT single-stranded linker to array surface; dsDNA, one strand shown.
Outline: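 Using Ni–NTA, transcription factors fused N-terminally to polyhistidine and DsRed were purified after expression in E. coli BL21-CodonPlus. These were incubated at 200 nM with a blocked, double-stranded custom Agilent array for 1 h at 25 °C in a buffer containing 50 µM zinc acetate, and the array was washed. The binding signal is per-feature fluorescence intensity (arbitrary units) on an Axon 4000B scanner.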

| Sequence | binding signal |
| --- | --- |
| TTTTTTAACTTAAATCAGCGTGTGTACTATTTTTCTTTTACGGAGTCACCTAGTGCAG | 8630 fluorescence intensity (a.u.) |
| TGGGAATTGGGACCCACGCCCATGTATCAGTTCTTCGGTTCGGAGTCACCTAGTGCAG | 8330 fluorescence intensity (a.u.) |
| TGCCTCTGCGTCAGTCGCTGTCTGTAAACTGTCCGGCAATCGGAGTCACCTAGTGCAG | 8500 fluorescence intensity (a.u.) |
| CTCTCGTGTCACTGCCTCATCGGCCTGCCTGCTCTGCCCGCGGAGTCACCTAGTGCAG | 8420 fluorescence intensity (a.u.) |
| ATATATATGGTAATGGATGGGGATGGTTGCAGTGTTCAAGCGGAGTCACCTAGTGCAG | 9130 fluorescence intensity (a.u.) |
| TGCAGCTCGTGTCAAATTTCTGTCGTTTCTTTGAGCGAATCGGAGTCACCTAGTGCAG | 8610 fluorescence intensity (a.u.) |
| TTCACGGTTTCAGGACTCGGCCGCATCCCTCCTCGCCCACCGGAGTCACCTAGTGCAG | 8940 fluorescence intensity (a.u.) |
| GGTTGAGGGTGATGATTAGTAAGATACTGGGGATGCTCGACGGAGTCACCTAGTGCAG | 8780 fluorescence intensity (a.u.) |
| TTTCTTGGTAGTTCTATTTCCAATCACATATCTTCTTGAACGGAGTCACCTAGTGCAG | 9600 fluorescence intensity (a.u.) |
| CCCCACTCCCTCCACTCCGGCGGTTTCATCCTCCTGTCCTCGGAGTCACCTAGTGCAG | 8750 fluorescence intensity (a.u.) |
| AATCTGTAGCCCGCTGCTTTTCTCTCTTCTCATTTATTTTCGGAGTCACCTAGTGCAG | 15400 fluorescence intensity (a.u.) |
| CCATATCGTTTTGACGTTTTTAGTGTAGGTCAATTTATAGCGGAGTCACCTAGTGCAG | 8170 fluorescence intensity (a.u.) |
| CGTCCTCGTTGCGTCGGCGCCATCGTCTCCCACAGGCGTTCGGAGTCACCTAGTGCAG | 8760 fluorescence intensity (a.u.) |
| CCCCTACGGTTCAGTGGTATCACCGATTTCTCCTCATTGACGGAGTCACCTAGTGCAG | 9350 fluorescence intensity (a.u.) |
| GTGTCCAACGTTTCACCGTCTGTCTCATATAAAATTTTTTCGGAGTCACCTAGTGCAG | 12400 fluorescence intensity (a.u.) |
| TGCCAAGGACTGCATCTTCATCATTGCCTGGGTGTCCACCCGGAGTCACCTAGTGCAG | 8700 fluorescence intensity (a.u.) |
| ACTCACTTCTTCCAGATCCACGCTTACGCTTCCACACTCACGGAGTCACCTAGTGCAG | 15500 fluorescence intensity (a.u.) |
| CGCCATTCCGCACGCCGTGTCTTCCTCTCGTAAATCCCTCCGGAGTCACCTAGTGCAG | 9490 fluorescence intensity (a.u.) |
| CCCTACTACCAGTCTACCACACTATGACACTACCCAACACCGGAGTCACCTAGTGCAG | 8670 fluorescence intensity (a.u.) |
| CTAAAGCACCCTTATATTACCATGCTGCTAATTTTGTTGTCGGAGTCACCTAGTGCAG | 8040 fluorescence intensity (a.u.) |
| GCGGCTGGTATTCACATCGATTCTTTTGTCGCAGCTGGCGCGGAGTCACCTAGTGCAG | 9560 fluorescence intensity (a.u.) |
| ATCACATCAAAATTTTCCTACACACATAAACTTCCAACTTCGGAGTCACCTAGTGCAG | 8140 fluorescence intensity (a.u.) |
| CCAGGTGCTTGTTGTAGCATTTGTATCTGCAGTCTCATTCCGGAGTCACCTAGTGCAG | 11500 fluorescence intensity (a.u.) |
| TTATAGTCTGCTTATTGTACCTGCTCTAAGGAGCTCTTCACGGAGTCACCTAGTGCAG | 9260 fluorescence intensity (a.u.) |
| TACCTCTGCTGGTGTCACCATGACCTCCTTGATCAACTCTCGGAGTCACCTAGTGCAG | 10300 fluorescence intensity (a.u.) |
| TTCTTCCTTTCTCTGTGTTTGTTTGTTTCCAGTTGCCACTCGGAGTCACCTAGTGCAG | 10000 fluorescence intensity (a.u.) |
| TCCTGGCCTATCTGTTCAGGTGCAGAATGCACTAGTTTCACGGAGTCACCTAGTGCAG | 8260 fluorescence intensity (a.u.) |

| Sequence | binding signal |
| --- | --- |
| TGTGGTTACTGTGTCGTTACTGTCTATATACCTCCCTGTTCGGAGTCACCTAGTGCAG | 13000 fluorescence intensity (a.u.) |
| CCCATTTTTTGTCAATTGAACTGATGGCCATGTTTTCAACCGGAGTCACCTAGTGCAG | 9750 fluorescence intensity (a.u.) |
| AAAACAATTTCCTTTTGGGGTGGTTCATCTGTTGATCACTCGGAGTCACCTAGTGCAG | 8192 fluorescence intensity (a.u.) |
| CCGTTGACTTTTTAGTACATGTTTAACCGTTCGTCTTATTCGGAGTCACCTAGTGCAG | 38600 fluorescence intensity (a.u.) |
| CTTTGTCCCGCGATCCCGGCGGTGCTCCGTCCATAGCTCTCGGAGTCACCTAGTGCAG | 12200 fluorescence intensity (a.u.) |
| AGATTTTTCTTTTACCAGTTTAAACTGTTTAGCTGTATACCGGAGTCACCTAGTGCAG | 8300 fluorescence intensity (a.u.) |
| TCCTTTTTTTTGGGTGCTTTTCTTTTGTATAGCACTGTACCGGAGTCACCTAGTGCAG | 65500 fluorescence intensity (a.u.) |
| CTCCGCCTCGCGCCGTTGTCGCCGTCGCCTCGCGCCGCCACGGAGTCACCTAGTGCAG | 10100 fluorescence intensity (a.u.) |
| TTGCAGTTCTCTGAATTTTTCTGGTGTTGGTTCAACACCACGGAGTCACCTAGTGCAG | 10000 fluorescence intensity (a.u.) |
| GGCGCCGGGGTGGGGTGGTGCTGGAGCCACCGGAGGAGCGCGGAGTCACCTAGTGCAG | 9730 fluorescence intensity (a.u.) |
| GAGGAGGTTGGGTTCTTGATCGGTGTCGGATTTTTGGTTGCGGAGTCACCTAGTGCAG | 10800 fluorescence intensity (a.u.) |
| CGGCCCATGCTACAGGGGTGGGTTGGTGATGAATTCTCCGCGGAGTCACCTAGTGCAG | 10500 fluorescence intensity (a.u.) |
| CTATTTCATCGTCCCTTCTGCATTAGGCCTAAATTTCCCACGGAGTCACCTAGTGCAG | 10100 fluorescence intensity (a.u.) |
| CAACGATGGCATCTTCCCGGCGTCGATGGAGGGGCGGAACCGGAGTCACCTAGTGCAG | 8080 fluorescence intensity (a.u.) |
| CCTGCTGACTGGACCACTACCTGTGACCCTTGGGAACCTCCGGAGTCACCTAGTGCAG | 10100 fluorescence intensity (a.u.) |
| TTGTGAACTTTTGACTTTTGCAATTTCTTGACTTATACCTCGGAGTCACCTAGTGCAG | 8700 fluorescence intensity (a.u.) |
| TCCTACCCTTTTTTTTTTGTGTGTTTGTGACGACACGACACGGAGTCACCTAGTGCAG | 8200 fluorescence intensity (a.u.) |
| GTTGTACAATGTACTATGCATTTTCTGATTTTTACCCTCACGGAGTCACCTAGTGCAG | 9050 fluorescence intensity (a.u.) |
| CGCACCGTCGACTAGTCCCGTCCCGTCGCGCCGTTGCCTTCGGAGTCACCTAGTGCAG | 8590 fluorescence intensity (a.u.) |
| CATATCAGCAACACATATCAGTTCATCAATATTTCAGTACCGGAGTCACCTAGTGCAG | 9480 fluorescence intensity (a.u.) |
| GTCACCCTTTTGTTTCGTTTTTCCATCAGCTAGTGCATTGCGGAGTCACCTAGTGCAG | 9590 fluorescence intensity (a.u.) |
| TCACCCTATGTTCCTGTGTTTTGTACTCTTTCGTAACAGCCGGAGTCACCTAGTGCAG | 12900 fluorescence intensity (a.u.) |
| CATTTTTGTTGGTTATTAGTTTTTAGGCCATTTTATTTACCGGAGTCACCTAGTGCAG | 10300 fluorescence intensity (a.u.) |
| CCTCCACCATCGCCACCACCTCCGCCTCGTTTCCATCGCCCGGAGTCACCTAGTGCAG | 9340 fluorescence intensity (a.u.) |
| CGGCTCGCTCAACCATACCACCTTTTCAAATTCATTTTTCCGGAGTCACCTAGTGCAG | 11600 fluorescence intensity (a.u.) |
| TCCACTGCACTTCATACCTTTTCGTCTGCTCTTTCTTCAGCGGAGTCACCTAGTGCAG | 12100 fluorescence intensity (a.u.) |
| ACCACCGCCGCCGCCGTCTTACTCTCTCTGTCTCGAGCTCCGGAGTCACCTAGTGCAG | 8810 fluorescence intensity (a.u.) |

Reprinted from the results shown for reference:

| Sequence | binding signal |
| --- | --- |
| TCCACTGCACTTCATACCTTTTCGTCTGCTCTTTCTTCAGCGGAGTCACCTAGTGCAG | 12100 fluorescence intensity (a.u.) |
| ACCACCGCCGCCGCCGTCTTACTCTCTCTGTCTCGAGCTCCGGAGTCACCTAGTGCAG | 8810 fluorescence intensity (a.u.) |

Some values from the list:
binding signal with GAGGAGGTTGGGTTCTTGATCGGTGTCGGATTTTTGGTTGCGGAGTCACCTAGTGCAG is entered as 10800 fluorescence intensity (a.u.)
binding signal with CTCCGCCTCGCGCCGTTGTCGCCGTCGCCTCGCGCCGCCACGGAGTCACCTAGTGCAG is entered as 10100 fluorescence intensity (a.u.)
